# Results published in article doi:10.1101/2020.10.24.353268.
# Protein sequences, listed by entry. Tags and fused reporters are not part of them. Residues count along the entry.
# UniProt Q14451, whole entry: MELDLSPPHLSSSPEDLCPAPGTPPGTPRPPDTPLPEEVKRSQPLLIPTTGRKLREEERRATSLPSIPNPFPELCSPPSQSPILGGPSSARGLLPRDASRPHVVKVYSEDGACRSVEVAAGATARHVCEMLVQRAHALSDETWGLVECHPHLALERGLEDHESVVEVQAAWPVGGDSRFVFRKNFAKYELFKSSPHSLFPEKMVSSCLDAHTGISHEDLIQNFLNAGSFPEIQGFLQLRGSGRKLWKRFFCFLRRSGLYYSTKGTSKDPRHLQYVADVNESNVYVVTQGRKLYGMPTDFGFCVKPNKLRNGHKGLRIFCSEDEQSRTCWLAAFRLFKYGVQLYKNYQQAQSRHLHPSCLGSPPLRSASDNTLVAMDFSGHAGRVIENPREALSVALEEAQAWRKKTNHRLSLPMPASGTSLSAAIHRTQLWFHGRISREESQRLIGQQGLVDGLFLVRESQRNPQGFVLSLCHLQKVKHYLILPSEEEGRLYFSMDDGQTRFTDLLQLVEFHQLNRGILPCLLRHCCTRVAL
# UniProt P54764, 20-986: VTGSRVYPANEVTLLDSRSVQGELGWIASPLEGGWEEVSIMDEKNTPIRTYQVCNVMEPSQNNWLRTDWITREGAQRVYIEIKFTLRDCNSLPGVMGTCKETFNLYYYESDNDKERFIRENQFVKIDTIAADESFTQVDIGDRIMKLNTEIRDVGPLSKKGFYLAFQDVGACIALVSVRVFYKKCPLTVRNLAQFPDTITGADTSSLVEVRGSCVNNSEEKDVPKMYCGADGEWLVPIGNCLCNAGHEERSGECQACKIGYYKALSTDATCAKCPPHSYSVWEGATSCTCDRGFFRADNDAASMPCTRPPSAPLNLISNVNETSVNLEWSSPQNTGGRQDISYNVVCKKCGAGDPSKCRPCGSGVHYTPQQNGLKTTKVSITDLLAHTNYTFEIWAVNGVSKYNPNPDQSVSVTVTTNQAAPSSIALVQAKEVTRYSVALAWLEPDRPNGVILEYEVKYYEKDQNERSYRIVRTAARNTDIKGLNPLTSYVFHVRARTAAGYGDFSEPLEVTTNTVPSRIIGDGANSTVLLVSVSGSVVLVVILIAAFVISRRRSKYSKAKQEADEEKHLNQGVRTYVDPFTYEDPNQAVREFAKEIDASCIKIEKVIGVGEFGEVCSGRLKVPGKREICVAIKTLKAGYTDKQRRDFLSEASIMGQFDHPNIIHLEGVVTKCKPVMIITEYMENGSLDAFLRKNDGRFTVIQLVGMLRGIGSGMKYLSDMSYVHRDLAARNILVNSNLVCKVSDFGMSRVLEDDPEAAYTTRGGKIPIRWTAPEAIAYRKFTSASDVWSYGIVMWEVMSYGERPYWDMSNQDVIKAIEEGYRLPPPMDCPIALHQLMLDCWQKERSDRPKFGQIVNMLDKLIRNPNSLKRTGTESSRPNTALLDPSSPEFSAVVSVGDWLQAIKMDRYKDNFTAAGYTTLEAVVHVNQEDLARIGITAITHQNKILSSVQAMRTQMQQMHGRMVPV
# UniProt P40763, whole entry: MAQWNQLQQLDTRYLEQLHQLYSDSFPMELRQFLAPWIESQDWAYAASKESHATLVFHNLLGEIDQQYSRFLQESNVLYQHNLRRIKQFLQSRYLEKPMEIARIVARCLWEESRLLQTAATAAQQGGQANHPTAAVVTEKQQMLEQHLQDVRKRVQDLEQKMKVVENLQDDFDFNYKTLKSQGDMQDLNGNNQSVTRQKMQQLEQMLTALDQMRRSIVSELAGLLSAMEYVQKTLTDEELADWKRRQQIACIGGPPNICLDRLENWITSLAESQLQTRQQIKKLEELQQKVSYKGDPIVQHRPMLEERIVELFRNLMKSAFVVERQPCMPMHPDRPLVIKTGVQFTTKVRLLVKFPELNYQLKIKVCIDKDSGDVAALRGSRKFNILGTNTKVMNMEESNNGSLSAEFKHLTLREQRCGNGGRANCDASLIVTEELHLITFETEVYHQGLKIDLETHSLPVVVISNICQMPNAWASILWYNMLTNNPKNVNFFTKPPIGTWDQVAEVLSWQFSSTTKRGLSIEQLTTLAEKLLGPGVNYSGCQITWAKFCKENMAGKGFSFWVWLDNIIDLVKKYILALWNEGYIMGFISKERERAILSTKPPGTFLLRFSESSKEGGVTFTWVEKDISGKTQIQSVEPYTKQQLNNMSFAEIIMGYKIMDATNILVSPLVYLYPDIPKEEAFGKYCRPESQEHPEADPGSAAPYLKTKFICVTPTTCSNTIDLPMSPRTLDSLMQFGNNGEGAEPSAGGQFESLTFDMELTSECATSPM
# Read-outs that look alike come from different tables or passages of the source. Results are given in words; binding and its absence hold for the method and conditions named. In cells and extracts the contact can be indirect. Some results given as binding are weak or reduced against the parent protein; the word gives no strength.
# Experiments:
# Assay in all cases: co-IP
# [1] = target: EGFR (human (endogenous in A549)) (UniProt P00533)
# [2] = target: HA-tagged Grb7 (growth factor receptor bound protein-7) (UniProt Q14451)
# [3] = target: HA-tagged Grb7 (growth factor receptor bound protein-7) (UniProt Q14451); remark: listed apart in the source
# [4] = target: HA-tagged Grb7 (growth factor receptor bound protein-7) (UniProt Q14451); remark: listed apart in the source
binding [1],binding [2],binding [3],binding [4],Substance
binds,,,,EphA4 (from UniProt P54764 20-986) (receptor)
,binds,,,Flag-tagged STAT3 (from UniProt P40763 1-770)
,binds,binds,binds,STAT3 (from UniProt P40763 1-770)
